Source: the supplement of paper PMC10849652
Some of the results follow.

Sequences of proteins named here, by UniProt entry; tags and fusion partners are left off. A change or cut given only in a name is not applied to a line headed by its entry.
UniProt Q96DP5: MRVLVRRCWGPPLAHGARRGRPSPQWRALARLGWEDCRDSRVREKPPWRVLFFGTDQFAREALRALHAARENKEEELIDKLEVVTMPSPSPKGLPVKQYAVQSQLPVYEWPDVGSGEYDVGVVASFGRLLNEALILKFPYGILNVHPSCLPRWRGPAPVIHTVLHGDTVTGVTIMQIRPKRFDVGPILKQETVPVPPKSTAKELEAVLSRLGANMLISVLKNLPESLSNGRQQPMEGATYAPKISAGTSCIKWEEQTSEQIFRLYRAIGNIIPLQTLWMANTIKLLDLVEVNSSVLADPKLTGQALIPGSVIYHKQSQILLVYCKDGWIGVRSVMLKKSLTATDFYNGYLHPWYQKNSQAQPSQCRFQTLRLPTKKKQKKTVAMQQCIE
UniProt Q9UJ68: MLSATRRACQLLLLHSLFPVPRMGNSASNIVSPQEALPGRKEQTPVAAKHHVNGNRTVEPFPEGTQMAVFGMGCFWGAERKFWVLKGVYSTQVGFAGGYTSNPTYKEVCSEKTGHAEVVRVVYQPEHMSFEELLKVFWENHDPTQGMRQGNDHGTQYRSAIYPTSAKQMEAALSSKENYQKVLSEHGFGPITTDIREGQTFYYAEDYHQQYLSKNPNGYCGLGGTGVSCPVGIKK
UniProt Q9NXD2: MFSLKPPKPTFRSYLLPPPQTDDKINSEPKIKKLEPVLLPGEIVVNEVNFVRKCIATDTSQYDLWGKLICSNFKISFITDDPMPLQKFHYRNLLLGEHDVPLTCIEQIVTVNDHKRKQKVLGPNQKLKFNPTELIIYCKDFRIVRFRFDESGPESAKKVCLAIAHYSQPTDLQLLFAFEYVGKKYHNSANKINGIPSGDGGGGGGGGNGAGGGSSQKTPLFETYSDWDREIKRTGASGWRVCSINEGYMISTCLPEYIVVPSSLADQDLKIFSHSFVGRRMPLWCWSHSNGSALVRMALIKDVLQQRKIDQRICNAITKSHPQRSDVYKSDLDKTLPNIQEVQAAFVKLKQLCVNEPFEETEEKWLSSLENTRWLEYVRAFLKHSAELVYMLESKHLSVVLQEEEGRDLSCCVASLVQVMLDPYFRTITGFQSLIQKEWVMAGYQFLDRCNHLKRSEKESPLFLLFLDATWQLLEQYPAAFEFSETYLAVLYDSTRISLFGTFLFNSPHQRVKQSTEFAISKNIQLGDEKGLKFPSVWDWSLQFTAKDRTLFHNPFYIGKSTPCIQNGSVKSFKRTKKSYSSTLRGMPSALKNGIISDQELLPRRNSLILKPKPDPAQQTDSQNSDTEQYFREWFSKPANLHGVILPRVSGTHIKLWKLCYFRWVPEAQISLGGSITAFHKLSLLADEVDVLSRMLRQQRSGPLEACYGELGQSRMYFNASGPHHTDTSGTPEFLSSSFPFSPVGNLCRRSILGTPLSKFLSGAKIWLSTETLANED
UniProt Q13126: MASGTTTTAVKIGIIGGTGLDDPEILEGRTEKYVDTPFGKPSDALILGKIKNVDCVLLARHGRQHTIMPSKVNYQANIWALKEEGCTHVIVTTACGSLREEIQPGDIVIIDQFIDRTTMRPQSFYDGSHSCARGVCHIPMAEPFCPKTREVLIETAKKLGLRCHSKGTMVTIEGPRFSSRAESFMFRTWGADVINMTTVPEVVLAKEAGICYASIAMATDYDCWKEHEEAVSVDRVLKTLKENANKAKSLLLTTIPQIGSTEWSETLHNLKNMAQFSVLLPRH
UniProt Q9NYA4: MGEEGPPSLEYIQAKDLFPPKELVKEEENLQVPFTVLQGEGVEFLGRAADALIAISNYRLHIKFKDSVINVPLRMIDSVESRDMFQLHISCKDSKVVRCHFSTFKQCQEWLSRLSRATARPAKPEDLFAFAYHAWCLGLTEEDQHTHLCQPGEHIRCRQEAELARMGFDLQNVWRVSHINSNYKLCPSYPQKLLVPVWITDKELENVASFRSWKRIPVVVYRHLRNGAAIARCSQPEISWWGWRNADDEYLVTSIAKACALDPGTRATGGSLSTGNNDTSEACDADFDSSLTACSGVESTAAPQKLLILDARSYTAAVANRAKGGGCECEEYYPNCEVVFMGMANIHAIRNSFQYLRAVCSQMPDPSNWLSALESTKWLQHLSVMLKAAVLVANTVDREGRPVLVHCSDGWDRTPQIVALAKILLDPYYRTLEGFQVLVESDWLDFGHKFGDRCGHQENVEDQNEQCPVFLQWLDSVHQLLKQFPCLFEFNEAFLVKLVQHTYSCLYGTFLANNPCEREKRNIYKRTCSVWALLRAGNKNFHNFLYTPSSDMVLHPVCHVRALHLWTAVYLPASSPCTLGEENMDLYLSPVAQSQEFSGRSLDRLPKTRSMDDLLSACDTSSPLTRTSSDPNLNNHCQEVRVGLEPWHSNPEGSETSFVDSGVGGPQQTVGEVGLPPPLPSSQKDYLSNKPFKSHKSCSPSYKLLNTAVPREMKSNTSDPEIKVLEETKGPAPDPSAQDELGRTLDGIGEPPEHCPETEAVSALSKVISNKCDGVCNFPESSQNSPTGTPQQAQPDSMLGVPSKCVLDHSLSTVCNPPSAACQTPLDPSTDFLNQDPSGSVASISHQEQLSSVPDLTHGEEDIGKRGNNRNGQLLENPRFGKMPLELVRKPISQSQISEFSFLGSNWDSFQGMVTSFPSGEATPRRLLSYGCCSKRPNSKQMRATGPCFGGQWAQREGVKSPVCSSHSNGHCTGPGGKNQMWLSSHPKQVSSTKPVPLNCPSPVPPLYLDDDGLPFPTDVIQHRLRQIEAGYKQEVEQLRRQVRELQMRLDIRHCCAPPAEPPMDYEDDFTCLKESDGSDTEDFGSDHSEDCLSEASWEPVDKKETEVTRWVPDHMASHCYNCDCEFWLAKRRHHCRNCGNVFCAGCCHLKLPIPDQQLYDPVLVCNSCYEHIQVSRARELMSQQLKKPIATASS
UniProt Q14764, whole entry, looked up: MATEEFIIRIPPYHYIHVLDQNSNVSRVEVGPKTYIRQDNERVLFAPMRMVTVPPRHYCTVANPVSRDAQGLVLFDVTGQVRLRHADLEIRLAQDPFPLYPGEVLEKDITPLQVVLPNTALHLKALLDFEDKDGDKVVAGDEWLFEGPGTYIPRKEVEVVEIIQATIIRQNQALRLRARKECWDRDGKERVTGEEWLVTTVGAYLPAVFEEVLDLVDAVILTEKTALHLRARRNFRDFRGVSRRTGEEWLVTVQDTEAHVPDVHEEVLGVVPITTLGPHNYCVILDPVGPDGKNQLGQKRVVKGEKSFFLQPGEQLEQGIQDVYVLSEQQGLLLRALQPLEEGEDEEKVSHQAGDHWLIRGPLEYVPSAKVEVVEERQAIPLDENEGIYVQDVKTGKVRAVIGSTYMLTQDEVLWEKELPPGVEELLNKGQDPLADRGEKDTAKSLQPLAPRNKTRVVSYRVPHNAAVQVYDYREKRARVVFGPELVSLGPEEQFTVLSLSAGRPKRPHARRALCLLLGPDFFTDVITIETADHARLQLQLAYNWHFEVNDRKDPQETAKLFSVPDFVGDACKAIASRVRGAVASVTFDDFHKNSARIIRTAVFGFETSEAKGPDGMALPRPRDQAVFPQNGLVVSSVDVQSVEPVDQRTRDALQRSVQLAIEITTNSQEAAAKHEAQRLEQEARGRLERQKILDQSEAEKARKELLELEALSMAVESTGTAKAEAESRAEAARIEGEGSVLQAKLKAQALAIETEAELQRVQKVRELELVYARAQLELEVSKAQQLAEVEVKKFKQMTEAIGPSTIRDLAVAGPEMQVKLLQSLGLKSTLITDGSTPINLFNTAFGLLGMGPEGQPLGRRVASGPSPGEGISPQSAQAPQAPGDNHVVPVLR
UniProt Q93083: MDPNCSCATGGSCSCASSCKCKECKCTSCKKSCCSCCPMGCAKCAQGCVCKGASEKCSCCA
UniProt P03897, whole entry, looked up: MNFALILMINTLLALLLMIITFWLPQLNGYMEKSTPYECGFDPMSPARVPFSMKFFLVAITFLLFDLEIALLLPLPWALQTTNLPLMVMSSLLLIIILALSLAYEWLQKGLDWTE
UniProt Q9UKX2, whole entry, looked up: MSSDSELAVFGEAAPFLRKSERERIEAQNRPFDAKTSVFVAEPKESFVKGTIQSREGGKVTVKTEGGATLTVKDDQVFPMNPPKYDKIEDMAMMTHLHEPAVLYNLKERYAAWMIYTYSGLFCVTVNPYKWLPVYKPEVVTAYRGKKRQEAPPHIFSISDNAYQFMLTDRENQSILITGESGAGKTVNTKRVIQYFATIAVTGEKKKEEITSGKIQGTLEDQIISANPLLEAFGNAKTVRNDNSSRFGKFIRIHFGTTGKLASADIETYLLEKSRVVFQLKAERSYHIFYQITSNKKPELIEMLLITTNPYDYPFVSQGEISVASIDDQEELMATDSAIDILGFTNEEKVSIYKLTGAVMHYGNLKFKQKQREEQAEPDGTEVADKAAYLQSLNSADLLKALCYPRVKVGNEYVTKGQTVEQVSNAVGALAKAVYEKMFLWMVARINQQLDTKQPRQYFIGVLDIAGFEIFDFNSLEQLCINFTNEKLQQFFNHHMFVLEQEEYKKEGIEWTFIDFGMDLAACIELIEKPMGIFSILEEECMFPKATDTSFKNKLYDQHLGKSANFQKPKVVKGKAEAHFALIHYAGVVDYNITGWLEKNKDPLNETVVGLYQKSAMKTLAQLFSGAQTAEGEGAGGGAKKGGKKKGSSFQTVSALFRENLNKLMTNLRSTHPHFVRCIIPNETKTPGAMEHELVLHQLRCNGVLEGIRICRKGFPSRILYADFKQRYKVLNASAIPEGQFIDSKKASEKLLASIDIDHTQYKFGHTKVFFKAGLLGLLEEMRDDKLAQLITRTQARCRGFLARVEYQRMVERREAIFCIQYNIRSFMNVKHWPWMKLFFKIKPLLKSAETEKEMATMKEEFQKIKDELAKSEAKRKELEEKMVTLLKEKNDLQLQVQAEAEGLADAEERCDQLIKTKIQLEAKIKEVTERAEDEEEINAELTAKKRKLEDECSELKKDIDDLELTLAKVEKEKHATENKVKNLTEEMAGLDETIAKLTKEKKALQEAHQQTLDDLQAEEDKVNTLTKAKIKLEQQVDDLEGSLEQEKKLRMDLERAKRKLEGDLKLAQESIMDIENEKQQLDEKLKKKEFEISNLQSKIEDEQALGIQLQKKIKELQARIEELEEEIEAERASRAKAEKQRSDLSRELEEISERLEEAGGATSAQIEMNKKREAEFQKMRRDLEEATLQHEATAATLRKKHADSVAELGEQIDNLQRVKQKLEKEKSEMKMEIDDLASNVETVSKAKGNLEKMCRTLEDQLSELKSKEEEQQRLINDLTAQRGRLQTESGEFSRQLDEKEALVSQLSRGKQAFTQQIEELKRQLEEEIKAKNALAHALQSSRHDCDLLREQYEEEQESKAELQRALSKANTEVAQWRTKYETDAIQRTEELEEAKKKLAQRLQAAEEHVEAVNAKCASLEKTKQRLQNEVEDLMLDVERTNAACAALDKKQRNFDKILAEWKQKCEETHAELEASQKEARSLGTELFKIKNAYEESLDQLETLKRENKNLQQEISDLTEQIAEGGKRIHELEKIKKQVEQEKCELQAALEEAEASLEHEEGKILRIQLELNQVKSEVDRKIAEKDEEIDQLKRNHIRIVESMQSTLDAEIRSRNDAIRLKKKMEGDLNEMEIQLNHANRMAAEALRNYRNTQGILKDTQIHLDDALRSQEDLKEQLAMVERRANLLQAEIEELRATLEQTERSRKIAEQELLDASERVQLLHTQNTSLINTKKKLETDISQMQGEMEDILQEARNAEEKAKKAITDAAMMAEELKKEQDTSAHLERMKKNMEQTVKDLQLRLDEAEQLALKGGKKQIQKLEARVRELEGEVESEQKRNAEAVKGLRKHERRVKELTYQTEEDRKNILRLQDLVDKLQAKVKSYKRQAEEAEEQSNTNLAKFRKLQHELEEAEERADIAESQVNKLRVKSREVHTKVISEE
UniProt P08590, whole entry, looked up: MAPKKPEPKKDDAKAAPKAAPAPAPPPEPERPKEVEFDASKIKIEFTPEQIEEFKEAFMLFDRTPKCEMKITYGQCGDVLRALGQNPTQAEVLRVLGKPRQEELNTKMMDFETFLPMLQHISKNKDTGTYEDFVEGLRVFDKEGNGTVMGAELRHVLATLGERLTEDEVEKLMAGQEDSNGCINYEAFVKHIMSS
UniProt O75570: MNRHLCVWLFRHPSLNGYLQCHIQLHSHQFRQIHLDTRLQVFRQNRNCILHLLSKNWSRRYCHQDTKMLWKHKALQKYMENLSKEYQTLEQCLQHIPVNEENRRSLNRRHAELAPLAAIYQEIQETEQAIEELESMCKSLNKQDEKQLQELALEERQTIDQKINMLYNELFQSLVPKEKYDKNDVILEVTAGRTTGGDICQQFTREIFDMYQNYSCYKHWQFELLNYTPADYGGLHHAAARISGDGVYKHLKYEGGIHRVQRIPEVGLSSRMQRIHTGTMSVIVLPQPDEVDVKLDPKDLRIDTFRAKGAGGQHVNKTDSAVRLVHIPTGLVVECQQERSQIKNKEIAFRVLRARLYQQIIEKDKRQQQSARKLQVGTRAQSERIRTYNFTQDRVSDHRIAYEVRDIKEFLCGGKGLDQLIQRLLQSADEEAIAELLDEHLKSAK
UniProt P03928: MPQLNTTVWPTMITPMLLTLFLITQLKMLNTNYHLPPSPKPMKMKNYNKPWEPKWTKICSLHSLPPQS

Columns and labels:
Test in all cases: log2 fold change, soluble protein after heating vs DMSO (PISA); higher = thermal stabilisation; K562 cells, 10 uM, 30 min; active = over 0.2 and 3.5 SD of the protein, either way, in both replicates (recomputed)
Tubastatin A = compound: CN1CCc2c(c3ccccc3n2Cc2ccc(C(=O)NO)cc2)C1 [Tubastatin A]
How it was run: (§1)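 Thermal stability values are relative to control samples and come from duplicates. They are expressed as log2 fold changes. For measurement, K562 cells (2×10^6 cells/mL) received 10 μM compound for 30 min, and aliquots were heated for 3 min over 48°C-58°C, pooled, and extracted at 4°C in PBS with 0.5% NP-40. Soluble protein, the supernatant after 21,000xg for 90 min, was quantified by TMTpro 16plex LC-MS/MS with equalised channel sums.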

defactinib = compound: CNC(=O)c1ccc(Nc2ncc(C(F)(F)F)c(NCc3nccnc3N(C)S(C)(=O)=O)n2)cc1 [defactinib]
How it was run: as §1

[1] = compound: COC(=O)[C@H](CCSC)NC(=O)C1=C(C=C(C=C1)NC[C@H](CS)N)C2=CC=CC=C2
How it was run: as §1

idasanutlin = compound: COc1cc(C(=O)O)ccc1NC(=O)[C@@H]1N[C@@H](CC(C)(C)C)[C@](C#N)(c2ccc(Cl)cc2F)[C@H]1c1cccc(Cl)c1F [idasanutlin]
How it was run: as §1

alisertib = compound: COc1cc(Nc2ncc3c(n2)-c2ccc(Cl)cc2C(c2c(F)cccc2OC)=NC3)ccc1C(=O)O [alisertib]
How it was run: as §1

[2] = compound: COc1cc2nc(-c3cc(F)ccc3O)nc(N[C@@H]3CNC[C@H]3C(C)(C)O)c2cc1OC
How it was run: as §1

[3] = compound: COc1cccc2cc(-c3nc([C@H]4CC[C@H](C(=O)O)CC4)n4ncnc(N)c34)[nH]c12
How it was run: as §1

lapatinib = compound: CS(=O)(=O)CCNCc1ccc(-c2ccc3ncnc(Nc4ccc(OCc5cccc(F)c5)c(Cl)c4)c3c2)o1 [lapatinib]
How it was run: as §1

rucaparib = compound: CNCc1ccc(-c2[nH]c3cc(F)cc4c3c2CCNC4=O)cc1 [rucaparib]
How it was run: as §1

encorafenib = compound: COC(=O)N[C@@H](C)CNc1nccc(-c2cn(C(C)C)nc2-c2cc(Cl)cc(NS(C)(=O)=O)c2F)n1 [encorafenib]
How it was run: as §1

sotrastaurin = compound: CN1CCN(c2nc(C3=C(c4c[nH]c5ccccc45)C(=O)NC3=O)c3ccccc3n2)CC1 [sotrastaurin]
How it was run: as §1

filanesib = compound: CON(C)C(=O)N1N=C(c2cc(F)ccc2F)S[C@@]1(CCCN)c1ccccc1 [filanesib]
How it was run: as §1

gefitinib = compound: COc1cc2ncnc(Nc3ccc(F)c(Cl)c3)c2cc1OCCCN1CCOCC1 [gefitinib]
How it was run: as §1

saracatinib = compound: CN1CCN(CCOc2cc(OC3CCOCC3)c3c(Nc4c(Cl)ccc5c4OCO5)ncnc3c2)CC1 [saracatinib]
How it was run: as §1

[4] = compound: CNc1nc(-c2ccc3c(N)n[nH]c3c2)cc(N2C[C@@H](C(=O)NC3CCCCC3)CC[C@H]2C)n1
How it was run: as §1

alvocidib = compound: CN1CC[C@H](c2c(O)cc(O)c3c(=O)cc(-c4ccccc4Cl)oc23)[C@H](O)C1 [alvocidib]
How it was run: as §1

[5] = compound: CNC(=O)C1=CC=CC=C1NC2=NC(=NC=C2Cl)NC3=C(C=C(C=C3)N4CCOCC4)OC
How it was run: as §1

zotarolimus = compound: CO[C@H]1C[C@@H]2CC[C@@H](C)[C@@](O)(O2)C(=O)C(=O)N2CCCC[C@H]2C(=O)O[C@H]([C@H](C)C[C@@H]2CC[C@H](n3cnnn3)[C@H](OC)C2)CC(=O)[C@H](C)/C=C(\C)[C@@H](O)[C@@H](OC)C(=O)[C@H](C)C[C@H](C)/C=C/C=C/C=C/1C [zotarolimus]
How it was run: as §1

pictilisib = compound: CS(=O)(=O)N1CCN(Cc2cc3nc(-c4cccc5[nH]ncc45)nc(N4CCOCC4)c3s2)CC1 [pictilisib]
How it was run: as §1

[6] = compound: COC1=CC=C(C=C1)CN2C=CC3=C2C=C(C=C3)C(=O)NO
How it was run: as §1

Measured: log2 fold change

MTSS1 isoform 5 (UniProt O43312)
inactive: Tubastatin A -0.002 | defactinib -0.221 | [1] -0.089 | idasanutlin 0.009 | alisertib -0.196 | [2] 0.066 | [3] 0.171 | lapatinib 0.075

MYH4 (UniProt Q9Y623)
inactive: rucaparib 0.689 | encorafenib -1.27

MRPS36 (UniProt D6R941)
inactive: sotrastaurin 0.216 | filanesib 0.304 | gefitinib 0.062

MTFMT (UniProt Q96DP5)
inactive: sotrastaurin 0.187 | Tubastatin A -0.062 | defactinib -0.122 | rucaparib -0.007 | encorafenib 0 | [1] -0.179 | filanesib -0.264 | [2] -0.128 | lapatinib 0.057

MSRA (UniProt Q9UJ68)
inactive: saracatinib -0.207 | [4] 0.079 | [2] -0.244 | lapatinib 0.118

MTRF1L (UniProt Q9UGC7)
inactive: saracatinib 0.072 | alvocidib -0.151 | Tubastatin A -0.046 | [5] 0.037 | defactinib -0.006 | rucaparib 0.053 | [4] -0.004 | encorafenib -0.102 | [1] -0.052 | zotarolimus 0.01 | idasanutlin -0.024 | alisertib 0.117 | [2] 0.007 | gefitinib 0.017 | [3] 0.014 | lapatinib 0.039 | pictilisib -0.037

MUC7 (UniProt Q8TAX7)
inactive: sotrastaurin 0.054 | filanesib 0.671 | gefitinib 0.172

MTMR10 (UniProt Q9NXD2)
inactive: sotrastaurin 0.08 | [6] -0.223 | filanesib -0.029 | alisertib -0.008 | [2] 0.095 | gefitinib -0.131 | [3] 0.071 | lapatinib -0.171

MTAP isoform 2 (UniProt Q13126)
inactive: saracatinib 0.108 | sotrastaurin 0.097 | [4] 0.007 | [6] 0.067 | filanesib -0.1 | pictilisib 0.015

MTMR4 (UniProt Q9NYA4)
inactive: sotrastaurin 0.022 | [5] -0.05 | [6] -0.015 | filanesib 0.02

MVP (UniProt Q14764)
inactive: rucaparib 1.25 | encorafenib -0.698

MTIF2 (UniProt P46199)
inactive: sotrastaurin -0.073 | filanesib 0.21

MXRA7 isoform 3 (UniProt P84157)
inactive: [2] 0.077 | lapatinib -0.27

MT1L (UniProt Q93083)
inactive: saracatinib 0.264 | Tubastatin A -0.27 | [5] 0.004 | rucaparib -0.009 | [4] 0.096 | encorafenib 0.066 | idasanutlin 0.392 | alisertib 0.123 | [2] -0.323 | gefitinib -0.082 | [3] 0.196 | lapatinib 0.038 | pictilisib 0.07

MT-CO1 (UniProt P00395)
inactive: sotrastaurin 0.022 | alvocidib -0.04 | Tubastatin A -0.146 | [5] 0.051 | defactinib -0.004 | rucaparib -0.074 | encorafenib -0.029 | [1] 0.031 | [6] 0.003 | filanesib -0.131 | zotarolimus 0.112 | idasanutlin -0.075 | alisertib -0.005 | [2] -0.004 | gefitinib 0.023 | [3] 0.068 | lapatinib -0.111

MT-ND3 (UniProt P03897)
inactive: [5] -0.17 | [6] 0.047 | gefitinib 0.294

MYNN (UniProt Q9NPC7)
inactive: sotrastaurin 0.048 | filanesib 0.184

MYH3 (UniProt P11055)
inactive: alvocidib 0.021 | Tubastatin A -0.001 | [5] 0.079 | rucaparib 0.234 | encorafenib -0.25 | zotarolimus -0.07 | gefitinib 1.58 | pictilisib 0.052

MYO18B isoform 3 (UniProt Q8IUG5)
inactive: sotrastaurin -0.053 | Tubastatin A 0.103 | [5] -0.024 | rucaparib 0.262 | encorafenib -0.023 | filanesib 0.326 | idasanutlin 0.11 | gefitinib 0.026

MYH2 (UniProt Q9UKX2)
inactive: saracatinib 0.078 | rucaparib 0.597 | [4] 0.063 | encorafenib -1.33 | alisertib -0.148 | [3] 0.101

MTURN (UniProt Q8N3F0)
inactive: Tubastatin A -0.272 | defactinib 0.134 | [1] 0.06 | [6] -0.007 | alisertib -0.013 | [2] -0.001 | [3] 0.097 | lapatinib -0.019

9 neighbouring entries out of the list so far, quoted:
MVP (UniProt Q14764)
inactive: rucaparib 1.25 | encorafenib -0.698

MTIF2 (UniProt P46199)
inactive: sotrastaurin -0.073 | filanesib 0.21

MXRA7 isoform 3 (UniProt P84157)
inactive: [2] 0.077 | lapatinib -0.27

MT1L (UniProt Q93083)
inactive: saracatinib 0.264 | Tubastatin A -0.27 | [5] 0.004 | rucaparib -0.009 | [4] 0.096 | encorafenib 0.066 | idasanutlin 0.392 | alisertib 0.123 | [2] -0.323 | gefitinib -0.082 | [3] 0.196 | lapatinib 0.038 | pictilisib 0.07

MT-CO1 (UniProt P00395)
inactive: sotrastaurin 0.022 | alvocidib -0.04 | Tubastatin A -0.146 | [5] 0.051 | defactinib -0.004 | rucaparib -0.074 | encorafenib -0.029 | [1] 0.031 | [6] 0.003 | filanesib -0.131 | zotarolimus 0.112 | idasanutlin -0.075 | alisertib -0.005 | [2] -0.004 | gefitinib 0.023 | [3] 0.068 | lapatinib -0.111

MT-ND3 (UniProt P03897)
inactive: [5] -0.17 | [6] 0.047 | gefitinib 0.294

MYNN (UniProt Q9NPC7)
inactive: sotrastaurin 0.048 | filanesib 0.184

MYH3 (UniProt P11055)
inactive: alvocidib 0.021 | Tubastatin A -0.001 | [5] 0.079 | rucaparib 0.234 | encorafenib -0.25 | zotarolimus -0.07 | gefitinib 1.58 | pictilisib 0.052

MYO18B isoform 3 (UniProt Q8IUG5)
inactive: sotrastaurin -0.053 | Tubastatin A 0.103 | [5] -0.024 | rucaparib 0.262 | encorafenib -0.023 | filanesib 0.326 | idasanutlin 0.11 | gefitinib 0.026

Next part:

MYL3 (UniProt P08590)
inactive: saracatinib -0.011 | alvocidib -0.107 | [5] 0.07 | rucaparib 0.132 | [4] 0.035 | encorafenib 0.114 | [6] -0.272 | zotarolimus 0.037 | alisertib -0.037 | [2] -0.16 | gefitinib 0.035 | [3] -0.08 | lapatinib 0.087 | pictilisib 0.002

MTMR9 (UniProt Q96QG7)
inactive: saracatinib 0.065 | alvocidib -0.071 | Tubastatin A 0.044 | [5] 0.038 | defactinib -0.04 | rucaparib -0.018 | [4] 0.025 | encorafenib 0.049 | [1] -0.008 | [6] 0.007 | zotarolimus 0.071 | idasanutlin -0.122 | alisertib 0.031 | [2] 0.07 | gefitinib -0.026 | [3] 0.02 | lapatinib 0.001 | pictilisib 0.086

MYBBP1A isoform 2 (UniProt Q9BQG0)
inactive: saracatinib 0.063 | alvocidib -0.046 | Tubastatin A 0.402 | [5] -0.138 | rucaparib 0.384 | [4] 0.069 | encorafenib 0.615 | [6] 0 | zotarolimus 0.003 | idasanutlin 0.459 | gefitinib -0.072 | pictilisib -0.083

MTRF1 (UniProt O75570)
inactive: sotrastaurin -0.068 | filanesib -0.179 | idasanutlin 0.11

MT-ATP8 (UniProt P03928)
inactive: sotrastaurin 0.101 | Tubastatin A -0.004 | [5] 0.107 | rucaparib 0.102 | encorafenib -0.153 | [6] 0.103 | filanesib 0.005 | idasanutlin 0.038 | alisertib 0.044 | gefitinib -0.017 | [3] 0.118 | pictilisib 0.076

MYO19 (UniProt Q96H55)
active: pictilisib 0.567
inactive: saracatinib -0.066 | [5] -0.046 | defactinib 0.093 | [4] 0.09 | [1] 0.103 | [6] -0.083 | zotarolimus 0.071 | idasanutlin -0.116 | [2] 0.081 | gefitinib 0.024 | lapatinib 0.276

MYD88 isoform 6 (UniProt Q99836)
inactive: sotrastaurin -0.092 | defactinib -0.085 | [1] -0.02 | [6] -0.105 | filanesib 0.087 | idasanutlin -0.127 | alisertib -0.156 | [2] -0.165 | gefitinib -0.094 | [3] -0.658 | lapatinib 0.389 | pictilisib -0.06

MYH15 (UniProt Q9Y2K3)
inactive: sotrastaurin -0.26 | rucaparib -0.063 | encorafenib -0.02 | filanesib -0.265 | alisertib 0.028 | gefitinib -0.162 | [3] 0.053

MTHFD1L (UniProt B7ZM99)
inactive: saracatinib -0.009 | alvocidib -0.092 | [5] 0.013 | defactinib -0.001 | rucaparib -0.104 | [4] 0.06 | encorafenib -0.118 | [1] 0.002 | zotarolimus -0.069 | idasanutlin -0.226 | alisertib -0.009 | [2] 0.127 | gefitinib -0.018 | [3] 0.099 | lapatinib -0.062 | pictilisib 0.093

MYH6 (UniProt P13533)
inactive: saracatinib 0.003 | alvocidib 0.028 | [5] -0.138 | [4] -0.012 | zotarolimus -0.268 | alisertib -0.153 | [2] 0.19 | gefitinib 0.089 | [3] -0.015 | lapatinib -0.051 | pictilisib 0.113

MTRES1 (UniProt Q9P0P8)
inactive: Tubastatin A -0.018 | [5] -0.037 | rucaparib 0.052 | encorafenib -0.171 | idasanutlin 0.117 | alisertib 0.081 | [2] 0.066 | [3] 0.149 | lapatinib -0.041
